The results in this text go back to article doi:10.1101/2025.03.06.641037.

Results are given in words; binding and its absence hold for the method and conditions named. Binding seen in cells or lysates may run through a third protein. Here binding means that the protein was enriched with, or labelled near, the bait; the list need not be complete. Tags and fused reporters may be left off the sequences shown.

T1: F2V5-ADNP (Activity-Dependent Neuroprotective Protein, endogenously tagged) (human (endogenous in H9-derived hNSCs)) (UniProt Q9H2P0)
T1 sequence: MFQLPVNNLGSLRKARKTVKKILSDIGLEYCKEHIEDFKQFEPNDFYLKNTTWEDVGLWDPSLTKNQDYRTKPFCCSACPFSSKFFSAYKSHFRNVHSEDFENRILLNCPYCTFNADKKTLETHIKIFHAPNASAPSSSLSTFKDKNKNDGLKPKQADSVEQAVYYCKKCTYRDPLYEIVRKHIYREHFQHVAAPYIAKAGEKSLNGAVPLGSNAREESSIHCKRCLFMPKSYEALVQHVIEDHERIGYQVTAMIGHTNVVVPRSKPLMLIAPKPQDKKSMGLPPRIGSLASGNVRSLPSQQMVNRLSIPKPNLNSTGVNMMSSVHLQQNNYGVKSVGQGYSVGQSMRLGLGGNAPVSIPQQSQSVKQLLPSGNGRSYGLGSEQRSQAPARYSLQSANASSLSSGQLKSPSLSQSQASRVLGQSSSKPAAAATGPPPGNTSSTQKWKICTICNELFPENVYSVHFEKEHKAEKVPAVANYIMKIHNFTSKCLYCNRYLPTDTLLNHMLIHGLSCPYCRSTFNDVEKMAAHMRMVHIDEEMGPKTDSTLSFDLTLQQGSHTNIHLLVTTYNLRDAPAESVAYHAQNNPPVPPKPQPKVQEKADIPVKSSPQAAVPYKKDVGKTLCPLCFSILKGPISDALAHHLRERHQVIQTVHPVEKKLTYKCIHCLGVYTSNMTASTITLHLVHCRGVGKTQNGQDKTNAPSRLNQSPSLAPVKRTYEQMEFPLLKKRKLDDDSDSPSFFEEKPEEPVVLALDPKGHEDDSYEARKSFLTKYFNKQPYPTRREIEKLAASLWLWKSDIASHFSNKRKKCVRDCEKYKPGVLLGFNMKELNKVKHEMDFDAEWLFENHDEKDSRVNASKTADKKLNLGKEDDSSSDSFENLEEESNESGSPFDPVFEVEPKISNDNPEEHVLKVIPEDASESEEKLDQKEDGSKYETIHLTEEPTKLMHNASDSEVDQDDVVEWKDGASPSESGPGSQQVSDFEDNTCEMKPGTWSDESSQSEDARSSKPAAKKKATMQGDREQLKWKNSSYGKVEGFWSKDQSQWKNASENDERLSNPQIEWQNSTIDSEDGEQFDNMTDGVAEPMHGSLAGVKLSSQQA

B1: POGZ (protein, UniProt Q7Z3K3 1-1410)
chain: MADTDLFMECEEEELEPWQKISDVIEDSVVEDYNSVDKTTTVSVSQQPVSAPVPIAAHASVAGHLSTSTTVSSSGAQNSDSTKKTLVTLIANNNAGNPLVQQGGQPLILTQNPAPGLGTMVTQPVLRPVQVMQNANHVTSSPVASQPIFITTQGFPVRNVRPVQNAMNQVGIVLNVQQGQTVRPITLVPAPGTQFVKPTVGVPQVFSQMTPVRPGSTMPVRPTTNTFTTVIPATLTIRSTVPQSQSQQTKSTPSTSTTPTATQPTSLGQLAVQSPGQSNQTTNPKLAPSFPSPPAVSIASFVTVKRPGVTGENSNEVAKLVNTLNTIPSLGQSPGPVVVSNNSSAHGSQRTSGPESSMKVTSSIPVFDLQDGGRKICPRCNAQFRVTEALRGHMCYCCPEMVEYQKKGKSLDSEPSVPSAAKPPSPEKTAPVASTPSSTPIPALSPPTKVPEPNENVGDAVQTKLIMLVDDFYYGRDGGKVAQLTNFPKVATSFRCPHCTKRLKNNIRFMNHMKHHVELDQQNGEVDGHTICQHCYRQFSTPFQLQCHLENVHSPYESTTKCKICEWAFESEPLFLQHMKDTHKPGEMPYVCQVCQYRSSLYSEVDVHFRMIHEDTRHLLCPYCLKVFKNGNAFQQHYMRHQKRNVYHCNKCRLQFLFAKDKIEHKLQHHKTFRKPKQLEGLKPGTKVTIRASRGQPRTVPVSSNDTPPSALQEAAPLTSSMDPLPVFLYPPVQRSIQKRAVRKMSVMGRQTCLECSFEIPDFPNHFPTYVHCSLCRYSTCCSRAYANHMINNHVPRKSPKYLALFKNSVSGIKLACTSCTFVTSVGDAMAKHLVFNPSHRSSSILPRGLTWIAHSRHGQTRDRVHDRNVKNMYPPPSFPTNKAATVKSAGATPAEPEELLTPLAPALPSPASTATPPPTPTHPQALALPPLATEGAECLNVDDQDEGSPVTQEPELASGGGGSGGVGKKEQLSVKKLRVVLFALCCNTEQAAEHFRNPQRRIRRWLRRFQASQGENLEGKYLSFEAEEKLAEWVLTQREQQLPVNEETLFQKATKIGRSLEGGFKISYEWAVRFMLRHHLTPHARRAVAHTLPKDVAENAGLFIDFVQRQIHNQDLPLSMIVAIDEISLFLDTEVLSSDDRKENALQTVGTGEPWCDVVLAILADGTVLPTLVFYRGQMDQPANMPDSILLEAKESGYSDDEIMELWSTRVWQKHTACQRSKGMLVMDCHRTHLSEEVLAMLSASSTLPAVVPAGCSSKIQPLDVCIKRTVKNFLHKKWKEQAREMADTACDSDVLLQLVLVWLGEVLGVIGDCPELVQRSFLVASVLPGPDGNINSPTRNADMQEELIASLEEQLKLSGEHSESSTPRPRSSPEETIEPESLHQLFEGESETESFYGFEEADLDLMEI
B2: ZMYM2 (protein, UniProt Q9UBW7 1-1377)
chain: MDTSSVGGLELTDQTPVLLGSTAMATSLTNVGNSFSGPANPLVSRSNKFQNSSVEDDDDVVFIEPVQPPPPSVPVVADQRTITFTSSKNEELQGNDSKITPSSKELASQKGSVSETIVIDDEEDMETNQGQEKNSSNFIERRPPETKNRTNDVDFSTSSFSRSKVNAGMGNSGITTEPDSEIQIANVTTLETGVSSVNDGQLENTDGRDMNLMITHVTSLQNTNLGDVSNGLQSSNFGVNIQTYTPSLTSQTKTGVGPFNPGRMNVAGDVFQNGESATHHNPDSWISQSASFPRNQKQPGVDSLSPVASLPKQIFQPSVQQQPTKPVKVTCANCKKPLQKGQTAYQRKGSAHLFCSTTCLSSFSHKPAPKKLCVMCKKDITTMKGTIVAQVDSSESFQEFCSTSCLSLYEDKQNPTKGALNKSRCTICGKLTEIRHEVSFKNMTHKLCSDHCFNRYRMANGLIMNCCEQCGEYLPSKGAGNNVLVIDGQQKRFCCQSCVSEYKQVGSHPSFLKEVRDHMQDSFLMQPEKYGKLTTCTGCRTQCRFFDMTQCIGPNGYMEPYCSTACMNSHKTKYAKSQSLGIICHFCKRNSLPQYQATMPDGKLYNFCNSSCVAKFQALSMQSSPNGQFVAPSDIQLKCNYCKNSFCSKPEILEWENKVHQFCSKTCSDDYKKLHCIVTYCEYCQEEKTLHETVNFSGVKRPFCSEGCKLLYKQDFARRLGLRCVTCNYCSQLCKKGATKELDGVVRDFCSEDCCKKFQDWYYKAARCDCCKSQGTLKERVQWRGEMKHFCDQHCLLRFYCQQNEPNMTTQKGPENLHYDQGCQTSRTKMTGSAPPPSPTPNKEMKNKAVLCKPLTMTKATYCKPHMQTKSCQTDDTWRTEYVPVPIPVPVYIPVPMHMYSQNIPVPTTVPVPVPVPVFLPAPLDSSEKIPAAIEELKSKVSSDALDTELLTMTDMMSEDEGKTETTNINSVIIETDIIGSDLLKNSDPETQSSMPDVPYEPDLDIEIDFPRAAEELDMENEFLLPPVFGEEYEEQPRPRSKKKGAKRKAVSGYQSHDDSSDNSECSFPFKYTYGVNAWKHWVKTRQLDEDLLVLDELKSSKSVKLKEDLLSHTTAELNYGLAHFVNEIRRPNGENYAPDSIYYLCLGIQEYLCGSNRKDNIFIDPGYQTFEQELNKILRSWQPSILPDGSIFSRVEEDYLWRIKQLGSHSPVALLNTLFYFNTKYFGLKTVEQHLRLSFGTVFRHWKKNPLTMENKACLRYQVSSLCGTDNEDKITTGKRKHEDDEPVFEQIENTANPSRCPVKMFECYLSKSPQNLNQRMDVFYLQPECSSSTDSPVWYTSTSLDRNTLENMLVRVLLVKDIYDKDNYELDEDTD
B3: ZMYM3 (protein, UniProt Q14202 1-1370)
chain: MDPSDFPSPFDPLTLPEKPLAGDLPVDMEFGEDLLESQTAPTRGWAPPGPSPSSGALDLLDTPAGLEKDPGVLDGATELLGLGGLLYKAPSPPEVDHGPEGTLAWDAGDQTLEPGPGGQTPEVVPPDPGAGANSCSPEGLLEPLAPDSPITLQSPHIEEEETTSIATARRGSPGQEEELPQGQPQSPNAPPSPSVGETLGDGINSSQTKPGGSSPPAHPSLPGDGLTAKASEKPPERKRSERVRRAEPPKPEVVDSTESIPVSDEDSDAMVDDPNDEDFVPFRPRRSPRMSLRSSVSQRAGRSAVGTKMTCAHCRTPLQKGQTAYQRKGLPQLFCSSSCLTTFSKKPSGKKTCTFCKKEIWNTKDSVVAQTGSGGSFHEFCTSVCLSLYEAQQQRPIPQSGDPADATRCSICQKTGEVLHEVSNGSVVHRLCSDSCFSKFRANKGLKTNCCDQCGAYIYTKTGSPGPELLFHEGQQKRFCNTTCLGAYKKKNTRVYPCVWCKTLCKNFEMLSHVDRNGKTSLFCSLCCTTSYKVKQAGLTGPPRPCSFCRRSLSDPCYYNKVDRTVYQFCSPSCWTKFQRTSPEGGIHLSCHYCHSLFSGKPEVLDWQDQVFQFCCRDCCEDFKRLRGVVSQCEHCRQEKLLHEKLRFSGVEKSFCSEGCVLLYKQDFTKKLGLCCITCTYCSQTCQRGVTEQLDGSTWDFCSEDCKSKYLLWYCKAARCHACKRQGKLLETIHWRGQIRHFCNQQCLLRFYSQQNQPNLDTQSGPESLLNSQSPESKPQTPSQTKVENSNTVRTPEENGNLGKIPVKTRSAPTAPTPPPPPPPATPRKNKAAMCKPLMQNRGVSCKVEMKSKGSQTEEWKPQVIVLPIPVPIFVPVPMHLYCQKVPVPFSMPIPVPVPMFLPTTLESTDKIVETIEELKVKIPSNPLEADILAMAEMIAEAEELDKASSDLCDLVSNQSAEGLLEDCDLFGPARDDVLAMAVKMANVLDEPGQDLEADFPKNPLDINPSVDFLFDCGLVGPEDVSTEQDLPRTMRKGQKRLVLSESCSRDSMSSQPSCTGLNYSYGVNAWKCWVQSKYANGETSKGDELRFGPKPMRIKEDILACSAAELNYGLAQFVREITRPNGERYEPDSIYYLCLGIQQYLLENNRMVNIFTDLYYLTFVQELNKSLSTWQPTLLPNNTVFSRVEEEHLWECKQLGVYSPFVLLNTLMFFNTKFFGLQTAEEHMQLSFTNVVRQSRKCTTPRGTTKVVSIRYYAPVRQRKGRDTGPGKRKREDEAPILEQRENRMNPLRCPVKFYEFYLSKCPESLRTRNDVFYLQPERSCIAESPLWYSVIPMDRSMLESMLNRILAVREIYEELGRPGEEDLD

This assay concerns the target T1, F2V5-ADNP (Activity-Dependent Neuroprotective Protein, endogenously tagged) (human (endogenous in H9-derived hNSCs)). In words: affinity purification with mass spectrometry.
Regarding B1, the binding entry is recorded as “binds”. As to B2, the binding entry is on record as “binds”. For B3 the value was “binds”.
